Source: PubChem BioAssay AID1159584 (Peter MacCallum Cancer Centre, 2016)
Shown is an unselected part of about 18,000 reagents. Not all columns of the deposit are shown. The record does not give: the amount of reagent, the time to read-out.

Assay: 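Knock-downs that harm CDH1-null cells more than parental MCF10A cells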 (primary screen)
Cell system: human MCF10A breast epithelial cells, parental and CDH1-null
Reagent: siRNA against human genes
Read-out: 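ATP luminescence (CellTiter-Glo) viability per line relative to mean mock wells over all plates, and the ratio of CDH1-null to parental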
Direction: CDH1-null / parental viability ratio: higher = CDH1-null cells survive relatively better than parental

| gene symbol | PubChem SID | CDH1-null / parental viability ratio |
| --- | --- | --- |
| RPL22 | SID134315501 | 0.92 |
| ATM | SID152150358 | 0.95 |
| FLT3LG | SID134323909 | 0.89 |
| CLN5 | SID134323897 | 1 |
| DACH2 | SID134319250 | 0.92 |
| TPCN2 | SID152155325 | 1.32 |
| SLC5A11 | SID134312389 | 1.21 |
| SLC39A12 | SID152149010 | 1.13 |
| FAM50A | SID134316940 | 1 |
| MRPL27 | SID135622470 | 0.83 |
| CPNE4 | SID134313413 | 0.89 |
| CIDEB | SID152149417 | 0.82 |
| ARID4B | SID152150792 | 1.09 |
| ZNF263 | SID134322201 | 1.29 |
| DKK4 | SID152155142 | 1.53 |
| COBLL1 | SID135623993 | 1.11 |
| EDN1 | SID152149349 | 0.99 |
| OR8H2 | SID152153813 | 1.26 |
| TUBB2A | SID152147252 | 0.64 |
| TOR1B | SID134318379 | 1 |
| CASKIN2 | SID134318200 | 1.1 |
| GAL | SID152149133 | 1.19 |
| GPR78 | SID134311038 | 1.48 |
| NOXRED1 | SID134320563 | 0.87 |
| PRKACG | SID56478826 | 0.95 |
| ST3GAL2 | SID152149036 | 0.88 |
| HAND1 | SID134314523 | 1.23 |
| VCY1B | SID135625154 | 1.1 |

3 entries from above in another layout:
gene symbol,PubChem SID,CDH1-null / parental viability ratio
FAM50A,SID134316940,1
MRPL27,SID135622470,0.83
CPNE4,SID134313413,0.89
